# Test results reported in PubChem BioAssay AID602313 (National Center for Advancing Translational Sciences (NCATS), 2012).
# The campaign covered roughly 390,000 compounds. About 760 (0.19%) were called active. Inconclusive means that the source gave no clear call. Such entries were picked first, then a sample of the others. Calls come from the whole dose curve; as a rule, active = well fitted inhibition curve with a large enough effect; inconclusive = small, poorly fitted or top-dose-only effect; inactive = flat fitted curve, though single readings scatter. Potencies of inconclusive entries are doubtful fits and often do not repeat.
# Assay: qHTS for Inhibitors of Vif-A3F Interactions: qHTS; note: nearly all actives have a fitted effect of over 65% in size
# Details: HeLa A3F-eYFP + Vif (tagged APOBEC3F with the HIV-1 protein that degrades it), YFP fluorescence increase; series mostly up to 46.1 µM
# Summary of the method: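 HeLa cells stably expressing A3F-eYFP plus Vif, plated and incubated overnight at 37 deg C, then exposed to compounds overnight at 37 deg C. Blocked degradation read as raised yellow fluorescence (Ex 488/Em 500-530).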
# Potency is the fitted concentration of half-maximal effect.
row,Compound,Potency
1,Cc1ccc(C)c(NC(=O)Cn2c(=O)n(-c3ccccc3C)c(=O)c3c2c2cc(C)ccc2n3C)c1,inactive
2,Brc1ccc(OCc2nnnn2-c2ccccc2)cc1,inactive
3,CCNc1nc(NCC)nc(N(C)/N=C/c2ccco2)n1,"inconclusive: 35.5 µM [inhibitor, single point]"
4,O=C1CCCC(=NNC(=O)c2cc3ccccc3cc2O)C1,"inconclusive: 35.5 µM [inhibitor, single point]"
5,NC(=O)C(=O)N/N=C/c1c2ccccc2cc2ccccc12,"inconclusive: 35.5 µM [inhibitor, single point]"
6,COc1ccc(-c2nc3cnccn3c2NCc2ccccc2)cc1SC1CCCCC1,"inconclusive: 35.5 µM [inhibitor, single point]"
7,C=CCn1c(SCC(=O)N2CCOCC2)nnc1C(C)NC(=O)c1ccccc1 (centres undefined),"inconclusive: 35.5 µM [inhibitor, single point]"
8,COc1cc(Br)cc(/C=N/N(CCO)C2=NS(=O)(=O)c3ccccc32)c1OC,inactive
9,COc1cccc(C2Oc3ccccc3C3CC(c4cccs4)=NN32)c1 (centres undefined),"inconclusive: 35.5 µM [inhibitor, single point]"
10,N=C1S/C(=C\c2cccc3ccccc23)C(=O)N1c1ccc(F)cc1,"inconclusive: 15.8 µM [inhibitor, single point]"
11,Cc1c(C(=O)C(=O)NCCc2ccc(S(N)(=O)=O)cc2)c2ccccc2n1C,"inconclusive: 15.8 µM [inhibitor, partial curve, poor fit]"
12,C=C1CCC(C)C(C)(CCC2=CCOC2=O)C/C=C\C=C/1C(=O)O (centres undefined),inactive
13,COc1cc(-c2nnc(CSc3nnc(Nc4ccc(C(C)C)cc4)s3)o2)cc(OC)c1OC,"inconclusive: 25.1 µM [inhibitor, single point]"
14,S=C(Nc1ccc2c(c1)OCO2)N1CCN(Cc2ccco2)CC1,inactive
15,COc1cc2nc(SCC(=O)Nc3ccc(F)cc3)n3nc(CCn4c(C)nc5ccccc54)nc3c2cc1OC,"inconclusive: 35.5 µM [inhibitor, single point]"
16,O=C(COc1ccc(Cl)cc1)Nc1c(-c2cccs2)nc2ccccn12,"inconclusive: 35.5 µM [inhibitor, single point]"
17,COc1ccc(Cl)cc1NC(=O)CN(C)CC(=O)Nc1ccc(C)cc1Br,"inconclusive: 2.82 µM [inhibitor, partial curve, poor fit]"
18,CCCN1C(=O)c2cccc3c(N4CCCCC4)ccc(c23)C1=O,"inconclusive: 11.2 µM [inhibitor, partial curve, poor fit]"
19,CC1=NN(c2cccc(C(=O)O)c2)C(=O)/C1=C\C=C\c1ccco1,"inconclusive: 35.5 µM [inhibitor, single point]"
20,COc1ccc(C=NCCc2ccc(OC)c(OC)c2)cc1OC,inactive
21,CCN(CC)CCNC(=O)c1ccc(NC(=O)c2cccc(S(=O)(=O)N3CCc4ccccc43)c2)cc1,"inconclusive: 20 µM [inhibitor, partial curve, poor fit]"
22,CN1OC[C@@H]2C(=O)N3CCc4c([nH]c5ccccc45)[C@@H]3C[C@@H]21,"inconclusive: 25.1 µM [inhibitor, partial curve, poor fit]"

# Retrieved one by one from the entries so far (2):
row,Compound,Potency
4,O=C1CCCC(=NNC(=O)c2cc3ccccc3cc2O)C1,"inconclusive: 35.5 µM [inhibitor, single point]"
12,C=C1CCC(C)C(C)(CCC2=CCOC2=O)C/C=C\C=C/1C(=O)O (centres undefined),inactive

# Shown with tabs: 2 of the compounds above.
row	Compound	Potency
2	Brc1ccc(OCc2nnnn2-c2ccccc2)cc1	inactive
10	N=C1S/C(=C\c2cccc3ccccc23)C(=O)N1c1ccc(F)cc1	inconclusive: 15.8 µM [inhibitor, single point]

# Remaining list, next part.

row,Compound,Potency
1,CCCC(=O)NNC(=O)c1c(O)c2ccccc2[nH]c1=O,"inconclusive: 0.562 µM [inhibitor, full curve, poor fit]"
2,CCOC(=O)/C(=N\Nc1ccc(Br)cc1)N1CC(C)OC(C)C1 (centres undefined),"inconclusive: 3.16 µM [inhibitor, single point]"
3,COc1ccc(OC)c(NC(=O)CSc2nnc(C3CCCCC3)n2-c2ccccc2)c1,inactive
4,Cc1cccc(N2C(S)=C(C#N)C(=O)NC2c2cccs2)c1 (centres undefined),"inconclusive: 35.5 µM [inhibitor, single point]"
5,Nc1nc(SCc2ccc(Cl)cc2Cl)nc2nc3c(cc12)CCCC3,active: 22.4 µM
6,CN(CC(=O)Nc1cccc(F)c1)C(=O)CCc1nc2sc3c(c2c(=O)[nH]1)CCCC3,"inconclusive: 35.5 µM [inhibitor, single point]"
7,CCNc1nc(NCC)nc(N/N=C/c2ccc(N(C)C)cc2)n1,"inconclusive: 31.6 µM [inhibitor, single point]"
8,CCOC(=O)CN1C(=O)S/C(=C/C=C/c2ccc(N(C)C)cc2)C1=O,"inconclusive: 2.24 µM [inhibitor, full curve, poor fit]"
9,O=C1/C(=C/c2ccc(O)c(O)c2)SC(=S)N1Nc1ccccc1,"inconclusive: 35.5 µM [inhibitor, partial curve, poor fit]"
10,Cc1nc2ccc(NC(=O)COc3ccccc3)cc2s1,"inconclusive: 3.16 µM [inhibitor, single point]"
11,Cc1ccc(OCCC(=O)OCC(=O)NCc2ccccc2)cc1,"inconclusive: 31.6 µM [inhibitor, single point]"
12,CCCCCCn1c(=O)n2n(c1=O)[C@@H]1CN(S(=O)(=O)c3ccc(C)cc3)C[C@]1(O)[C@@H](OC(=O)NCC1CCCCC1)C2,"inconclusive: 35.5 µM [inhibitor, single point]"
13,O=C1c2oc3ccc(F)cc3c(=O)c2C(c2cccc([N+](=O)[O-])c2)N1CCCN1CCOCC1 (centres undefined),inactive
14,Cc1[nH]n(-c2ccccc2)c(=O)c1/C=N/NC(=O)C(C)C,"inconclusive: 31.6 µM [inhibitor, single point]"
15,CCOC(=O)CN(C#N)c1nc(N(C)C)nc(N(C)C)n1,inactive
16,O=C(Nc1ccccc1)Nc1sccc1-c1nc2ccccc2s1,"inconclusive: 20 µM [inhibitor, single point]"
17,COc1ccc(-c2noc(-c3ccc(NCc4ccccc4OC)c([N+](=O)[O-])c3)n2)cc1,inactive
18,Cc1nc(NCc2ccc(S(N)(=O)=O)cc2)c2c(C)c(C)sc2n1,"inconclusive: 3.98 µM [inhibitor, full curve, poor fit]"
19,OCCNCc1ccc(OCc2ccc(Cl)cc2Cl)cc1,"inconclusive: 12.6 µM [inhibitor, partial curve, poor fit]"
20,COc1cc(SC)ccc1C(=O)Nc1ccc(Cl)cn1,"inconclusive: 1.58 µM [inhibitor, partial curve, poor fit]"
21,COc1ccccc1OCC(=O)N1CCN(C(=O)c2ccco2)CC1,"inconclusive: 10 µM [inhibitor, partial curve, poor fit]"
22,O=C(CSc1nccc(-c2cccs2)n1)Nc1cccc(Cl)c1,"inconclusive: 3.16 µM [inhibitor, single point]"

row,Compound,Potency
1,COC(=O)c1cc(Br)ccc1NC(=O)CSCc1c(C)noc1C,"inconclusive: 35.5 µM [inhibitor, single point]"
2,Cc1ccc(S(=O)(=O)Nc2nc(N)n(-c3ccccc3)n2)cc1,"inconclusive: 2.82 µM [inhibitor, partial curve, poor fit]"
3,CC(C)c1ccccc1NC(=S)NCc1ccccc1F,"inconclusive: 35.5 µM [inhibitor, single point]"
4,CC(c1ccccc1)n1cnc2ccccc2c1=O (centres undefined),"inconclusive: 3.55 µM [inhibitor, single point]"
5,CCCCn1c(SCC(=O)Nc2cc(NC(=O)c3ccco3)ccc2C)nc2ccccc2c1=O,"inconclusive: 35.5 µM [inhibitor, single point]"
6,O=C(CN1CCN(c2ccc(F)cc2)CC1)Nc1ccc2c(c1)OCCO2,inactive
7,Cc1ccc(N=Cc2sc(O)c3ccccc23)c(C)c1,"inconclusive: 22.4 µM [inhibitor, partial curve, poor fit]"
8,COc1cc(/C=C(\C#N)C(=O)c2c[nH]c3ccccc23)cc(OC)c1O,"inconclusive: 22.4 µM [inhibitor, partial curve, poor fit]"
9,CCOc1ccc2nc(N/C(N)=N/C(=S)Nc3ccc(C)c(C)c3)nc(C)c2c1,"inconclusive: 35.5 µM [inhibitor, single point]"
10,COC(=O)C1=C(C)NC(=O)/C1=C\c1cc(C)n(-c2cc(C)cc(C)c2)c1C,"inconclusive: 3.55 µM [inhibitor, single point]"
11,CCOC(=O)c1ccc(N=Nc2c(C)c(C#N)c(O)[nH]c2=O)cc1,active: 10 µM
12,Cc1cccc(C(=O)Nc2nnc(C3=COCCO3)o2)c1,"inconclusive: 6.31 µM [inhibitor, full curve]"
13,CCC(C)(C)n1nnnc1C(c1ccc(OC)c(OC)c1)N1CCN(c2cccc(OC)c2)CC1 (centres undefined),inactive
14,O=C(Nc1ccc(C(=O)N2CCOCC2)cc1)c1cnn2c(C(F)F)cc(-c3ccccc3)nc12,"inconclusive: 6.31 µM [inhibitor, partial curve]"
15,COc1cccc(NC(=O)COC(=O)CCOc2ccccc2OC)c1,"inconclusive: 5.62 µM [inhibitor, single point]"
16,CCc1ccccc1N(CC(=O)N1CCCC1)S(C)(=O)=O,"inconclusive: 28.2 µM [inhibitor, single point]"
17,O=C(C[n+]1cc(Br)cc2ccccc21)c1ccc(Br)cc1,"inconclusive: 35.5 µM [inhibitor, single point]"
18,CC1CC(=O)C2=C(C1)OC(N)=C(C#N)C2c1coc2ccccc2c1=O (centres undefined),active: 11.2 µM
19,Cc1ccccc1-c1cccc([C@@H]2C[C@H]3[C@H](CON3C)CN2Cc2ccccc2)c1,"inconclusive: 22.4 µM [inhibitor, single point]"
20,CN1CCS/C1=C/C=C1\SC(=S)N(CC(=O)O)C1=O,"inconclusive: 3.16 µM [inhibitor, partial curve, poor fit]"
